Results as given in patent publication US4076830A, “Alkylmethanodibenzocycloheptapyrroles” (E. I. Du Pont de Nemours and Company, priority 1976, dated 1978).

Assay: general tranquilizer activity in mice (exploratory loss, ptosis, catatonia, muscle tone, grip and lift reflexes, pinna twitch reflex, tremors, death)
Conditions: mouse, in vivo, po
Protocol: Groups of five Carworth CF1 S female mice, 16-20 g each, were fasted 16-22 hours before use. The mice were put in opaque plastic "shoe-box" cages 15-30 min. before injection, and then treated orally with 4, 12, 36, 108 and 324 mg/kg of the compound to be tested […] in 1% aqueous distilled water solution of methylcellulose (Methocel®). Each dose was given in a standard volume of 0.45 ml. Observations were made at 0.5, 2 and 24 hours after dosing. ED50 values were calculated for each parameter including death (LD50). The ED50 and LD50 values are the doses at which 50% of the animals would be expected to respond.
Exploratory Activity - The mouse is placed on a stainless steel wire mesh screen (8 inches × 12 inches, 3 mesh per inch, 174 inch mesh openings) "shoe-box" lid (1 inch high) and is observed for normal activities, such as nose movements, head movements with apparent visual examination of the area, and/or walking around on the screen. Absence of or marked depression of these activities for 5 seconds constitutes loss of exploratory activity.
Ptosis - The mouse is picked up by the tail and placed on the screen with its head facing the observer. […]
Muscle Tone - The observer gently strokes the abdominal musculature of the mouse with thumb and forefinger. Flaccidity (or rarely, tenseness) is recorded. […]

In the case of CN1C(=O)CN=C(c2ccccc2)c2cc(Cl)ccc21 [Diazepam, reference compound], the LD50 at 24 h is reported as > 1000 mg/kg.
